Laboratory results from US10695352B2, “Combination therapy for treating malignancies” (Celgene Corporation, priority 2015, dated 2020).
Some entries share one result that the patent states for a list of compounds.

Tested on: TF1-R140Q cells
Experiment: Hematopoietic stem cell and blast content determination (CD34, CD38, FACS)
Format: cell-based
Conditions: sequential or concurrent regimens; COMPOUND 1 0.2 μM, azacitidine 0.1 μM, single agents or combination
Protocol: Flow cytometry analysis was performed for sequential and concurrent schedules. Hematopoietic progenitor cells (CD34+/CD38+) (i) and stem cells (CD34+/CD38−) (ii) populations were normalized to DMSO+EPO and plotted. Values for population percentage decreases are shown, with those in red font depicting greater than additive effect with the combination as compared to AZA or COMPOUND 1 as single agents.
Cells were blocked in 10×BSA and diluted with MACS rinsing solution to 1× concentration for 15 min (staining buffer, BD Biosciences). Supernatant was removed by spinning. 10 μl of anti-CD34 FITC and anti-CD38 APC antibodies (each in staining buffer) were added. Mouse IgG2a FITC and IgG2a APC were used as isotype controls. Cells were stained for 10 min in dark, the solution was spinned to remove supernatant, the cells were resuspended in 300 μl of staining buffer and proceed to fluorescence-activated cell sorting (FACS).
The hematopoietic stem (CD34+/CD38−) and progenitor (CD34+/CD38+) cell populations were quantified at the end of the EPO-differentiation assay (FIGS. 3 and 8). As single agents, both azacitidine and COMPOUND 1 reduced CD34+/CD38+(FIG. 3i) and CD34+/CD38− (FIG. 3ii) cell populations. […]

SMILES	decrease of hematopoietic stem cell population (CD34+/CD38−) [%]
CC(C)(O)CNc1nc(Nc2ccnc(C(F)(F)F)c2)nc(-c2cccc(C(F)(F)F)n2)n1 [COMPOUND 1, 2-methyl-1-[(4-[6-(trifluoromethyl)pyridin-2-yl]-6-{[2-(trifluoromethyl)pyridin-4-yl]amino}-1,3,5-triazin-2-yl)amino]propan-2-ol]	< 10
Nc1ncn([C@@H]2O[C@H](CO)[C@@H](O)[C@H]2O)c(=O)n1 [azacitidine, 4-amino-1-O-D-ribofuranozyl-s-triazin-2(1H)-one]	< 10
